Experiment: Iron sulphide dissolution test

## tetrakis(hydroxymethyl)phosphonium sulphate [Unformulated THPS]
2 g iron sulphide field scale, stirred 20 hrs at 50° C.
  % wt loss: 63%
Filtered solution after 20 hrs at 50° C., Hach DR2000 spectrophotometer
  Fe^2+ concentration in solution: 3120 ppm
